These are yes or no findings as the source states them, for the method shown. Binding seen in cells or lysates may run through a third protein. Some entries that bind do so weakly or less than the wild type.
Biological target: eukaryotic translation initiation factor 3 subunit b (human (endogenous in HEK293FT)) (UniProt P55884)
Assay: co-IP; endogenous eIF3 complex precipitated from extracts of formaldehyde cross-linked (0.2%) HEK293FT cells with an antibody against eIF3b (Bethyl A301-761A) and protein A uMACS magnetic beads; Lysis Buffer 50 mM Tris-HCl pH 8, 150 mM NaCl, 1% Triton X-100; four washes; western blot with antibodies against the subunits; also repeated after siRNA depletion of eIF3c, d, e, g (Table S1)

Chains of the proteins cited; added tags and fusions are not shown.
UniProt P55884: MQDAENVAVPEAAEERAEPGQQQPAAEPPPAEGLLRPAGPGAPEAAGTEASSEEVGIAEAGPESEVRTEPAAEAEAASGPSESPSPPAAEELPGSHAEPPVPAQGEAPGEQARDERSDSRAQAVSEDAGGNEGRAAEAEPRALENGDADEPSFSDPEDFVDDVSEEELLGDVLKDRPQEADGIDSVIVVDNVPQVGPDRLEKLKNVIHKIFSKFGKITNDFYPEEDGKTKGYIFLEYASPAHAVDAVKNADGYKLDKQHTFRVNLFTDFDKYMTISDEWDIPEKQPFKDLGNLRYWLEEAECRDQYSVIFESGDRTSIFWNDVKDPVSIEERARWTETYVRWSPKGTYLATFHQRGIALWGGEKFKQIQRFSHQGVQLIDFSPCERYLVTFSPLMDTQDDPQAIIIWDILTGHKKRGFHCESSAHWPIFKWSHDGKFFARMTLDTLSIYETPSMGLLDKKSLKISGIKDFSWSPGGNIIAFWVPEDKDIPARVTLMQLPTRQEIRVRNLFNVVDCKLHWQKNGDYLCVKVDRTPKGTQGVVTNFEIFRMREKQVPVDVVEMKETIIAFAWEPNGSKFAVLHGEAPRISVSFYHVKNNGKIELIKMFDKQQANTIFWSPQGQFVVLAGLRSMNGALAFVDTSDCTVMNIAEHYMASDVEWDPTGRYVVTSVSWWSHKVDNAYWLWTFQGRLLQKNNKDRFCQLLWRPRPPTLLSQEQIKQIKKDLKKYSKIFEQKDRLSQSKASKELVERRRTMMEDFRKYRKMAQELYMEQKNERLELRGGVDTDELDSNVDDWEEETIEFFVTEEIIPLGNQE
UniProt O15371: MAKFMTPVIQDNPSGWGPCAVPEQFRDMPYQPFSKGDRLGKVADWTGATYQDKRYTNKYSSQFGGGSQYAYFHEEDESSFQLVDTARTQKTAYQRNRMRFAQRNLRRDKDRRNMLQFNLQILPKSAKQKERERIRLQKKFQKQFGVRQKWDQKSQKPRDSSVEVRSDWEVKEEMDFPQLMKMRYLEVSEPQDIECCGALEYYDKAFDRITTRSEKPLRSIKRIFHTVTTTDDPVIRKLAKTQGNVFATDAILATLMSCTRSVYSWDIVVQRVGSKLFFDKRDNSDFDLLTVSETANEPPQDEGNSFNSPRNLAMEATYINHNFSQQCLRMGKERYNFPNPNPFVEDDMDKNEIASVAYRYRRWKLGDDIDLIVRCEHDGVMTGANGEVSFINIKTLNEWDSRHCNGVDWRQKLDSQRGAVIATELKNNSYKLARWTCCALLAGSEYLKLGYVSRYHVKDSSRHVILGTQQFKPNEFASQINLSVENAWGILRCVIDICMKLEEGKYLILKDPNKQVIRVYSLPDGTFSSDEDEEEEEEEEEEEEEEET
UniProt O00303: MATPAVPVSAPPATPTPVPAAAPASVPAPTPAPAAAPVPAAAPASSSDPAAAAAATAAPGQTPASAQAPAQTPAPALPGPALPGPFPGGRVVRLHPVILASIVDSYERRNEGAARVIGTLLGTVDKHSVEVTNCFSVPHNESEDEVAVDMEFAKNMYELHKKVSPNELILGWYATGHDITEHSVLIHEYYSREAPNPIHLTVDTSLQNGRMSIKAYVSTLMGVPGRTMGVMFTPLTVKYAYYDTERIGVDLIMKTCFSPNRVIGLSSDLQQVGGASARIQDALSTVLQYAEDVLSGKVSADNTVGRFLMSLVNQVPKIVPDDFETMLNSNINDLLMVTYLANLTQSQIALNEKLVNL
UniProt Q9UBQ5: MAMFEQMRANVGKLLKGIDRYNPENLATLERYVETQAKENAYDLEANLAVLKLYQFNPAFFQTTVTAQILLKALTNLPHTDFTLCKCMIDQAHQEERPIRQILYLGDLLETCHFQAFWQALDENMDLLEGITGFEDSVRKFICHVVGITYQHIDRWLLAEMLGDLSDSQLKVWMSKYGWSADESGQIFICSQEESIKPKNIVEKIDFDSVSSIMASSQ

| binding | Substance |
| --- | --- |
| binds | eukaryotic translation initiation factor 3 subunit d (from UniProt O15371 1-548) |
| binds | eukaryotic translation initiation factor 3 subunit f (from UniProt O00303 1-357) |
| binds | eukaryotic translation initiation factor 3 subunit k (from UniProt Q9UBQ5 1-218) |

Reference: publication PMC8102920
